{"source": "paper PMC9278858", "binders": {"B1": {"name": "Rpc82 (protein, UniProt P32349 1-654)", "chain": "MDELLGEALSAENQTGESTVESEKLVTPEDVMTISSLEQRTLNPDLFLYKELVKAHLGERAASVIGMLVALGRLSVRELVEKIDGMDVDSVKTTLVSLTQLRCVKYLQETAISGKKTTYYYYNEEGIHILLYSGLIIDEIITQMRVNDEEEHKQLVAEIVQNVISLGSLTVEDYLSSVTSDSMKYTISSLFVQLCEMGYLIQISKLHYTPIEDLWQFLYEKHYKNIPRNSPLSDLKKRSQAKMNAKTDFAKIINKPNELSQILTVDPKTSLRIVKPTVSLTINLDRFMKGRRSKQLINLAKTRVGSVTAQVYKIALRLTEQKSPKIRDPLTQTGLLQDLEEAKSFQDEAELVEEKTPGLTFNAIDLARHLPAELDLRGSLLSRKPSDNKKRSGSNAAASLPSKKLKTEDGFVIPALPAAVSKSLQESGDTQEEDEEEEDLDADTEDPHSASLINSHLKILASSNFPFLNETKPGVYYVPYSKLMPVLKSSVYEYVIASTLGPSAMRLSRCIRDNKLVSEKIINSTALMKEKDIRSTLASLIRYNSVEIQEVPRTADRSASRAVFLFRCKETHSYNFMRQNLEWNMANLLFKKEKLKQENSTLLKKANRDDVKGRENELLLPSELNQLKMVNERELNVFARLSRLLSLWEVFQMA"}, "B2": {"name": "Rpc37 (protein, UniProt P36121 1-282)", "chain": "MSIDNKLFVTEEDEEDRTQDRADVEDESNDIDMIADENGTNSAIANEQEEKSEEVKAEDDTGEEEEDDPVIEEFPLKISGEEESLHVFQYANRPRLVGRKPAEHPFISAARYKPKSHLWEIDIPLDEQAFYNKDKAESEWNGVNVQTLKGVGVENNGQYAAFVKDMQVYLVPIERVAQLKPFFKYIDDANVTRKQEDARRNPNPSSQRAQVVTMSVKSVNDPSQNRLTGSLLAHKVADEEANIELTWAEGTFEQFKDTIVKEAEDKTLVALEKQEDYIDNLV"}, "B3": {"name": "Rpc34 (protein, UniProt P32910 1-317)", "chain": "MSGMIENGLQLSDNAKTLHSQMMSKGIGALFTQQELQKQMGIGSLTDLMSIVQELLDKNLIKLVKQNDELKFQGVLESEAQKKATMSAEEALVYSYIEASGREGIWSKTIKARTNLHQHVVLKCLKSLESQRYVKSVKSVKFPTRKIYMLYSLQPSVDITGGPWFTDGELDIEFINSLLTIVWRFISENTFPNGFKNFENGPKKNVFYAPNVKNYSTTQEILEFITAAQVANVELTPSNIRSLCEVLVYDDKLEKVTHDCYRVTLESILQMNQGEGEPEAGNKALEDEEEFSIFNYFKMFPASKHDKEVVYFDEWTI"}, "B4": {"name": "Rpc31 (protein, UniProt P17890 1-251)", "chain": "MSSYRGGSRGGGSNYMSNLPFGLGYGDVGKNHITEFPSIPLPINGPITNKERSLAVKYINFGKTVKDGPFYTGSMSLIIDQQENSKSGKRKPNIILDEDDTNDGIERYSDKYLKKRKIGISIDDHPYNLNLFPNELYNVMGINKKKLLAISKFNNADDVFTGTGLQDENIGLSMLAKLKELAEDVDDASTGDGAAKGSKTGEGEDDDLADDDFEEDEDEEDDDDYNAEKYFNNGDDDDYGDEEDPNEEAAF"}, "B5": {"name": "Rpc17 (protein, UniProt P47076 1-161)", "chain": "MKVLEERNAFLSDYEVLKFLTDLEKKHLWDQKSLAALKKSRSKGKQNRPYNHPELQGITRNVVNYLSINKNFINQEDEGEERESSGAKDAEKSGISKMSDESFAELMTKLNSFKLFKAEKLQIVNQLPANMVHLYSIVEECDARFDEKTIEEMLEIISGYA"}, "B6": {"name": "Rpc11 (protein, UniProt Q04307 1-110)", "chain": "MLSFCPSCNNMLLITSGDSGVYTLACRSCPYEFPIEGIEIYDRKKLPRKEVDDVLGGGWDNVDQTKTQCPNYDTCGGESAYFFQLQIRSADEPMTTFYKCVNCGHRWKEN"}}, "note": "Results are given in words; binding and its absence hold for the method and conditions named. In cells and extracts the contact can be indirect. These calls come from enrichment with a bait or labelling near it, and not all partners need be listed. For part of these data: No binding means not detected with the bait. For part of these data: Where a sequence is shown, tags or fusion partners need not be part of it."}
{"biological_target": "T1, TAP-Sen1ΔNTD (Sen1 lacking the N-terminal domain, TAP-tagged, expressed from pGAL1) (S. cerevisiae) (UniProt Q00416)", "T1 sequence": "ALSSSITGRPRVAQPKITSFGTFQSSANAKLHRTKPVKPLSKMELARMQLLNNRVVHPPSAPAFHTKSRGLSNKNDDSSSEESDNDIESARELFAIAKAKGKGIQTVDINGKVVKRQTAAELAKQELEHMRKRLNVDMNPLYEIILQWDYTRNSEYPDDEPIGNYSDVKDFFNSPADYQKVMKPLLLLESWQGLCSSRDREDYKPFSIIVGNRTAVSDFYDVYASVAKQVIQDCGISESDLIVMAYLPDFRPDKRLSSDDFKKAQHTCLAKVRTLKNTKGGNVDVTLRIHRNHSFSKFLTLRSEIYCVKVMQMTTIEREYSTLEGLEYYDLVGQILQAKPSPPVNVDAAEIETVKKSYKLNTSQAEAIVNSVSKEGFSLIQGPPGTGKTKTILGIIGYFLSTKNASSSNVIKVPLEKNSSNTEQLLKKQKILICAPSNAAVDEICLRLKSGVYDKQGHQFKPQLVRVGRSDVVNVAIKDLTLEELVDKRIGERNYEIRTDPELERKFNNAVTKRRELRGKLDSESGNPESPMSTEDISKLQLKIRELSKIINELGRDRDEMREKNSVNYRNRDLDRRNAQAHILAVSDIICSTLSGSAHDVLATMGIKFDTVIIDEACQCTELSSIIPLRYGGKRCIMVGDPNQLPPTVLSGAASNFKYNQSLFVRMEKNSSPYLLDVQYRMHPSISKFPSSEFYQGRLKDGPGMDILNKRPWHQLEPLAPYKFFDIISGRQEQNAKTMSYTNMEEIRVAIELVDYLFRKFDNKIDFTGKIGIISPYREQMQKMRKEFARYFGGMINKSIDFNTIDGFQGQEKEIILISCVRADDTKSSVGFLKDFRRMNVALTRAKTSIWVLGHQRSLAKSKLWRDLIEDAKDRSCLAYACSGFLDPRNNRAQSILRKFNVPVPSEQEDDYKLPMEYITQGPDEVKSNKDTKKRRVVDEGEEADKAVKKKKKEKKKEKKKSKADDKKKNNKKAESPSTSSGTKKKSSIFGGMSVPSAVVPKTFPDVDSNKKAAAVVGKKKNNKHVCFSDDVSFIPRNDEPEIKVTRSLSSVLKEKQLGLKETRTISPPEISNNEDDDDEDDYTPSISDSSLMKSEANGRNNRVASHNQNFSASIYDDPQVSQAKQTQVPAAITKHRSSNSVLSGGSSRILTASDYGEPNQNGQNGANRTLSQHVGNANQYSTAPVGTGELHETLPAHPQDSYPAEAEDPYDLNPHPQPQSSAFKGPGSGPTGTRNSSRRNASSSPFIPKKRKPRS", "assay": "affinity purification with mass spectrometry; TAP-tagged Sen1 versions (full length, ΔNTD, NTD) overexpressed from pGAL1 as baits; yeast lysates in 10 mM sodium phosphate pH 7.5, 200 mM sodium acetate, 0.25% NP-40, treated with RNase A; IgG Sepharose; elution by TEV cleavage; untagged control"}
{"binder": "B1", "binding": "no binding"}
{"binder": "B2", "binding": "no binding"}
{"binder": "B3", "binding": "no binding"}
{"binder": "B4", "binding": "no binding"}
{"binder": "B5", "binding": "no binding"}
{"binder": "B6", "binding": "no binding"}
{"biological_target": "T2, TAP-NTD (isolated N-terminal domain of Sen1, TAP-tagged, expressed from pGAL1) (S. cerevisiae) (UniProt Q00416)", "T2 sequence": "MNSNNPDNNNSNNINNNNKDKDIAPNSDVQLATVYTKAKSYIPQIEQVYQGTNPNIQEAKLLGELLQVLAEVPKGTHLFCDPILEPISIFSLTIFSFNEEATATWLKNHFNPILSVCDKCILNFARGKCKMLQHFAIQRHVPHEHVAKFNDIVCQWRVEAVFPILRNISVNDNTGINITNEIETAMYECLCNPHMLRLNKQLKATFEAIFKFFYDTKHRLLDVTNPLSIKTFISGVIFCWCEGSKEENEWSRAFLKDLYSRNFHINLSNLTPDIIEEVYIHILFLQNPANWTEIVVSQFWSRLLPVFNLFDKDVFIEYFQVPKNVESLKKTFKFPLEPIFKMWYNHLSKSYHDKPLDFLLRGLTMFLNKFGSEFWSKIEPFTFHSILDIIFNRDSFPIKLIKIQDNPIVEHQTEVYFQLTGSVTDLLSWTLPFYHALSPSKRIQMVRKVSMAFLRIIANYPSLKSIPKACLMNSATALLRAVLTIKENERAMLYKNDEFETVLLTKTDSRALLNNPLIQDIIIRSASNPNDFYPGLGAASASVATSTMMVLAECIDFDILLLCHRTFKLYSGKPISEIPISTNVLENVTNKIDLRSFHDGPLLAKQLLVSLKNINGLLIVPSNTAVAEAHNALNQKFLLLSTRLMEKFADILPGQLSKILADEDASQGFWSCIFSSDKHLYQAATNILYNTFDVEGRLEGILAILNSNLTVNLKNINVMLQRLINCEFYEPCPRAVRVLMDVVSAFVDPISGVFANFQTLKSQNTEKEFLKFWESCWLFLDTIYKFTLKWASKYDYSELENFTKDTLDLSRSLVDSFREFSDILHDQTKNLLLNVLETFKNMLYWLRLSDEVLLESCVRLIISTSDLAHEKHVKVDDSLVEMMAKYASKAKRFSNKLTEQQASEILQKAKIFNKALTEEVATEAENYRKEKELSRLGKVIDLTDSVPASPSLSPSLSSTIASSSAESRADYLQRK", "assay": "affinity purification with mass spectrometry; TAP-tagged Sen1 versions (full length, ΔNTD, NTD) overexpressed from pGAL1 as baits; yeast lysates in 10 mM sodium phosphate pH 7.5, 200 mM sodium acetate, 0.25% NP-40, treated with RNase A; IgG Sepharose; elution by TEV cleavage; untagged control"}
{"binder": "B1", "binding": "binds"}
{"binder": "B2", "binding": "binds"}
{"binder": "B3", "binding": "binds"}
{"binder": "B4", "binding": "binds"}
{"binder": "B5", "binding": "binds"}
{"binder": "B6", "binding": "binds"}
{"biological_target": "TAP-Sen1 (full-length Sen1 fused to a tandem affinity purification tag, expressed from pGAL1) (S. cerevisiae) (UniProt Q00416)", "assay": "affinity purification with mass spectrometry; TAP-tagged Sen1 versions (full length, ΔNTD, NTD) overexpressed from pGAL1 as baits; yeast lysates in 10 mM sodium phosphate pH 7.5, 200 mM sodium acetate, 0.25% NP-40, treated with RNase A; IgG Sepharose; elution by TEV cleavage; untagged control"}
{"binder": "B1", "binding": "binds"}
{"binder": "B2", "binding": "binds"}
{"binder": "B3", "binding": "binds"}
{"binder": "B4", "binding": "binds"}
{"binder": "B5", "binding": "binds"}
{"binder": "B6", "binding": "binds"}
{"biological_target": "Sen1-TAP (wild-type Sen1 fused to a TAP tag) (S. cerevisiae) (UniProt Q00416)", "assay": "affinity purification with mass spectrometry; Sen1-TAP or Sen1-3–TAP as bait; yeast lysates; untagged control"}
{"binder": "B1", "binding": "binds"}
{"binder": "B2", "binding": "binds"}
{"binder": "B3", "binding": "binds"}
{"binder": "B4", "binding": "binds"}
{"binder": "B5", "binding": "binds"}
{"binder": "B6", "binding": "binds"}
